Assay results from paper PMC7862700.
Some of the results follow. Construct or isoform of the protein are uncertain.

Molecular target: T1, ELF2 (UniProt Q15723)
T1 sequence: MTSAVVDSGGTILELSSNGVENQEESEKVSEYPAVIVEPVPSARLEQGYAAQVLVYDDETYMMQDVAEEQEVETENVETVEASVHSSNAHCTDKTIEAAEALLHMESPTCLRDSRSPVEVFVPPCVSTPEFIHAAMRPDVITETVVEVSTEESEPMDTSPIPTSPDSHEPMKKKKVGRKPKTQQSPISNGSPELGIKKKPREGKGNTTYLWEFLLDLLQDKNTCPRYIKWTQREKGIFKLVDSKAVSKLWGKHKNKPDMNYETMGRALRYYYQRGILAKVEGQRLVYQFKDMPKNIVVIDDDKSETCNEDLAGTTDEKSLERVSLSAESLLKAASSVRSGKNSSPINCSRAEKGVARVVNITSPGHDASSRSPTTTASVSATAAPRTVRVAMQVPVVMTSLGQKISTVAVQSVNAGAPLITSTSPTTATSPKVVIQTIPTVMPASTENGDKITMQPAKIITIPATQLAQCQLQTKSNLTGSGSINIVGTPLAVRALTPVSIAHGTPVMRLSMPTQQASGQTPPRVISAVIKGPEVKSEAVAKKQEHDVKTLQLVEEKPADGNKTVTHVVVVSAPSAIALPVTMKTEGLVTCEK
Test: DAPPL (digital affinity profiling via proximity ligation, sequencing)
Settings: 10 mM Tris-HCl pH 7.5, 50 mM NaCl, 1 mM DTT, 4% glycerol, room temperature, 30 min; GST-TFs on glutathione beads, 16-mer random dsDNA library, 0.1% …; high values mean tight binding; double strand, one strand shown; scale: fold enrichment (6-mer frequency, TF over GST control)

Sequence	binding signal
GCTCGT	1.07
TCTGTC	1.1
TGGCAA	1.17
CGCCGA	1.09
CCACTT	2.15
CCCGCC	1.45
CCGATT	1.38
TTCTCA	1.2
ATCACT	1.28
ATCTCG	1.27
CCAATC	1.11
ATAATT	1.37
TCTGTT	1.38
CCCTAA	1.16
TCACTT	2.06
TGGTAC	1.13
TACCTC	1.22
ACTTTT	1.31
ACACGA	1.04
AATTTA	1.27

Looked up above:
CCCGCC | binding signal: 1.45
ACACGA | binding signal: 1.04
TTCTCA | binding signal: 1.2

Remaining list, next part.

Sequence	binding signal
AACTGC	1.37
ACTACC	1.91
TCAACC	1.14
TCGCTT	1.29
TAAGGT	1
CCCACG	1.11
ACATCC	3.06
TTGCAT	1.34
TCGAAT	1.01
CAAAAC	1.25
TTCATC	1.15
CTAATG	1.21
CCGCTA	1.46
TAGCTA	1.2
TTACCG	1.25
CGATAT	1.1
TCCGGC	2.52
CGAAGC	1.2
TTGAAC	1.06
TACGTA	1.29
